# Reference: publication PMC3050435
# Amino acid sequences for entries named in this document (tags omitted).
# UniProt Q14289: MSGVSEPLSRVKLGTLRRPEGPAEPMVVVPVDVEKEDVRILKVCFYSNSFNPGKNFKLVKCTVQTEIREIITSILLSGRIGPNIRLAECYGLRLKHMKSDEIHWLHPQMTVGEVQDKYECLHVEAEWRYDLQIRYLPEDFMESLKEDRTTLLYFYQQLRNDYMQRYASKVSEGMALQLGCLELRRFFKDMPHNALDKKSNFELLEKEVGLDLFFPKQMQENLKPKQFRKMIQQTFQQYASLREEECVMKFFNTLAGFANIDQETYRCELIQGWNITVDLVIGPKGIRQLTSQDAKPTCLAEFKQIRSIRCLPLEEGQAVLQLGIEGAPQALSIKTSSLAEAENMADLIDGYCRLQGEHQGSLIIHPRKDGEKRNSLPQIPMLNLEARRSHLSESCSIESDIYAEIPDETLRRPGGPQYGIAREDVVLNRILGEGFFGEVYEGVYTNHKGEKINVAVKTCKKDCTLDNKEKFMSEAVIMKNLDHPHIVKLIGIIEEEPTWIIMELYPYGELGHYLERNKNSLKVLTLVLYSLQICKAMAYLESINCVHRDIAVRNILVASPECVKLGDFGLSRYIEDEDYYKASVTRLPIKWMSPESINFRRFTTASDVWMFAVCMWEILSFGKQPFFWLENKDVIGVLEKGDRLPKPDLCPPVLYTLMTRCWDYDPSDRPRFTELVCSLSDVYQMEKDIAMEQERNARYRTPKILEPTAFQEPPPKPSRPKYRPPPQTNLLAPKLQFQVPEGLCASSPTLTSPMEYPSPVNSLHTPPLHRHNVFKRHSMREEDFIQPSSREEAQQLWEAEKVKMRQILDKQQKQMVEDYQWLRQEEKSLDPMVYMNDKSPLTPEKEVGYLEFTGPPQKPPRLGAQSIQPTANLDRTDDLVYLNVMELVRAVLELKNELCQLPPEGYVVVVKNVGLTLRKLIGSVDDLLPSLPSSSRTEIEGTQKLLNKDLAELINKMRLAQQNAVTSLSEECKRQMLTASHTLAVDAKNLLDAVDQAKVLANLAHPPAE
# Molecular target: Myc-tagged Pyk2 WT (Proline-rich Tyrosine kinase 2) (UniProt Q14289)
# Assay: affinity purification with mass spectrometry
row,Binder,binding
1,"RTEL-1 (RSMC) (protein, UniProt Q5RJZ1 1-1274) MPRVVLNGVTVDFPFQPYPCQQEYMTKVLECLQKKVNGILESPTGTGKTLCLLCTTLAWREHLRDAVSSLKIAERVQGELFASRTLSSWRSAADANGDSIDCYTDIPKIIYASRTHSQLTQVIGELRNTSYRPKVCVLGSREQLCIHPEVKKQESNHMQISLCRKKVASRSCHFYNNVEEKSLEQELATPILDIEDLVKNGSKHKVCPYYLSRNLKQQADIIFMPYNYLLDAKSRKAHNIDLKGTVVIFDEAHNVEKICEESASFDLTPRDVASGLEVINQVLEEQARVAQHGELQQEFIIDTSSSGLNMELEDIAKLKMILLHLEEAIDAVQLPGDDRGVTKPGSYIFELFAEAQITFQTKGCILESLDQIIQHLTGRTGVFTNTAGLQKLMDIIQIVFSVDPLEGSPGSQVGLGSSHFYKVHIHPETSHRRAAQRSDAWSTTASRKQGKVLSYWCFSPSHSMRELVQQGVRTLILTSGTLAPLSSFALEMQIPFPVCLENPHIIDKNQLWVGVIPRGPDGVQLSSAYDKRFSEECLSSLGKALGNIARVVPHGLLVFFPSYPVMEKSLEFWQAQGMSKKVEALKPLFVEPRNKGSFSEVIDAYYQQVASPGSNGATFLAVCRGKASEGLDFSDMNGRGVIVTGLPYPPRMDPRVILKMQFLDEMKGRSRVGGQCLSGQEWYQQQASRAVNQAIGRVIRHRHDYGAIFLCDHRFAYADARAHLPSWVRPYLKVYDNFGRVIRDVAQFFRVAQKAMPLPVPQAVTSSVSEGEAAVKEATLSSHSLSTRKAMSLDVHVPSLRRRPVGLPTAGDSESSVCVEYEQQTFSAQKRPMGLLAALEYNEQKAGASEEQALSSSTPSLRCEKRLSVEQRGGKKKVRLVNHPEEPVAGTQAGRAKMFMVAVKQALSQANFDTFTQALQHYKSSDDFEALVASLTCLFAEDPKKHTLLKGFYQFVRPHHKQQFEDICFQLTGQRCSYQPGNSLPFGEQAQSTASKQGRRELESKLTLSEGADRQLDPGEHLNQGWPHLSTHLTSKGDTSNCPKVGCVGEKPGQPAVNDYLSDVHKALGSASCNQLTAALRAYKQDDDLDKVLAVVAALTTAKPEHLSLLQRFGMFIRRHHKPRFVQTCADLMGLPTIGKGLELPCPRDESTTVPSELTHEDMKPGPSTSKKPEKTQSKISSFLRQRPDQSARSDDTIMQLPPRLPPEHTTSQWNFVCPACATEDTVLFQCPSCDFCRCRACWQRQLQASRLCPACGAVNRKQSIAQVIWPKPQ",binds
2,"Copine-5 (U373) (protein, UniProt Q9HCH3 1-593) MEQPEDMASLSEFDSLAGSIPATKVEITVSCRNLLDKDMFSKSDPLCVMYTQGMENKQWREFGRTEVIDNTLNPDFVRKFIVDYFFEEKQNLRFDLYDVDSKSPDLSKHDFLGQAFCTLGEIVGSPGSRLEKPLTIGAFSLNSRTGKPMPAVSNGGVPGKKCGTIILSAEELSNCRDVATMQFCANKLDKKDFFGKSDPFLVFYRSNEDGTFTICHKTEVMKNTLNPVWQTFSIPVRALCNGDYDRTIKVEVYDWDRDGSHDFIGEFTTSYRELARGQSQFNIYEVVNPKKKMKKKKYVNSGTVTLLSFAVESECTFLDYIKGGTQINFTVAIDFTASNGNPSQSTSLHYMSPYQLNAYALALTAVGEIIQHYDSDKMFPALGFGAKLPPDGRVSHEFPLNGNQENPSCCGIDGILEAYHRSLRTVQLYGPTNFAPVVTHVARNAAAVQDGSQYSVLLIITDGVISDMAQTKEAIVNAAKLPMSIIIVGVGQAEFDAMVELDGDDVRISSRGKLAERDIVQFVPFRDYVDRTGNHVLSMARLARDVLAEIPDQLVSYMKAQGIRPRPPPAAPTHSPSQSPARTPPASPLHTHI",binds
3,"AF-17 (U373) (protein, UniProt P55198 1-1093) MKEMVGGCCVCSDERGWAENPLVYCDGHACSVAVHQACYGIVQVPTGPWFCRKCESQERAARVRCELCPHKDGALKRTDNGGWAHVVCALYIPEVQFANVLTMEPIVLQYVPHDRFNKTCYICEEQGRESKAASGACMTCNRHGCRQAFHVTCAQMAGLLCEEEVLEVDNVKYCGYCKYHFSKMKTSRHSSGGGGGGAGGGGGSMGGGGSGFISGRRSRSASPSTQQEKHPTHHERGQKKSRKDKERLKQKHKKRPESPPSILTPPVVPTADKVSSSASSSSHHEASTQETSESSRESKGKKSSSHSLSHKGKKLSSGKGVSSFTSASSSSSSSSSSSGGPFQPAVSSLQSSPDFSAFPKLEQPEEDKYSKPTAPAPSAPPSPSAPEPPKADLFEQKVVFSGFGPIMRFSTTTSSSGRARAPSPGDYKSPHVTGSGASAGTHKRMPALSATPVPADETPETGLKEKKHKASKRSRHGPGRPKGSRNKEGTGGPAAPSLPSAQLAGFTATAASPFSGGSLVSSGLGGLSSRTFGPSGSLPSLSLESPLLGAGIYTSNKDPISHSGGMLRAVCSTPLSSSLLGPPGTSALPRLSRSPFTSTLPSSSASISTTQVFSLAGSTFSLPSTHIFGTPMGAVNPLLSQAESSHTEPDLEDCSFRCRGTSPQESLSSMSPISSLPALFDQTASAPCGGGQLDPAAPGTTNMEQLLEKQGDGEAGVNIVEMLKALHALQKENQRLQEQILSLTAKKERLQILNVQLSVPFPALPAALPAANGPVPGPYGLPPQAGSSDSLSTSKSPPGKSSLGLDNSLSTSSEDPHSGCPSRSSSSLSFHSTPPPLPLLQQSPATLPLALPGAPAPLPPQPQNGLGRAPGAAGLGAMPMAEGLLGGLAGSGGLPLNGLLGGLNGAAAPNPASLSQAGGAPTLQLPGCLNSLTEQQRHLLQQQEQQLQQLQQLLASPQLTPEHQTVVYQMIQQIQQKRELQRLQMAGGSQLPMASLLAGSSTPLLSAGTPGLLPTASAPPLLPAGALVAPSLGNNTSLMAAAAAAAAVAAAGGPPVLTAQTNPFLSLSGAEGSGGGPKGGTADKGASANQEKG",binds
4,"RTEL-1 (U373) (protein, UniProt Q9NZ71 1-1219) MPKIVLNGVTVDFPFQPYKCQQEYMTKVLECLQQKVNGILESPTGTGKTLCLLCTTLAWREHLRDGISARKIAERAQGELFPDRALSSWGNAAAAAGDPIACYTDIPKIIYASRTHSQLTQVINELRNTSYRPKVCVLGSREQLCIHPEVKKQESNHLQIHLCRKKVASRSCHFYNNVEEKSLEQELASPILDIEDLVKSGSKHRVCPYYLSRNLKQQADIIFMPYNYLLDAKSRRAHNIDLKGTVVIFDEAHNVEKMCEESASFDLTPHDLASGLDVIDQVLEEQTKAAQQGEPHPEFSADSPSPGLNMELEDIAKLKMILLRLEGAIDAVELPGDDSGVTKPGSYIFELFAEAQITFQTKGCILDSLDQIIQHLAGRAGVFTNTAGLQKLADIIQIVFSVDPSEGSPGSPAGLGALQSYKVHIHPDAGHRRTAQRSDAWSTTAARKRGKVLSYWCFSPGHSMHELVRQGVRSLILTSGTLAPVSSFALEMQIPFPVCLENPHIIDKHQIWVGVVPRGPDGAQLSSAFDRRFSEECLSSLGKALGNIARVVPYGLLIFFPSYPVMEKSLEFWRARDLARKMEALKPLFVEPRSKGSFSETISAYYARVAAPGSTGATFLAVCRGKASEGLDFSDTNGRGVIVTGLPYPPRMDPRVVLKMQFLDEMKGQGGAGGQFLSGQEWYRQQASRAVNQAIGRVIRHRQDYGAVFLCDHRFAFADARAQLPSWVRPHVRVYDNFGHVIRDVAQFFRVAERTMPAPAPRATAPSVRGEDAVSEAKSPGPFFSTRKAKSLDLHVPSLKQRSSGSPAAGDPESSLCVEYEQEPVPARQRPRGLLAALEHSEQRAGSPGEEQAHSCSTLSLLSEKRPAEEPRGGRKKIRLVSHPEEPVAGAQTDRAKLFMVAVKQELSQANFATFTQALQDYKGSDDFAALAACLGPLFAEDPKKHNLLQGFYQFVRPHHKQQFEEVCIQLTGRGCGYRPEHSIPRRQRAQPVLDPTGRTAPDPKLTVSTAAAQQLDPQEHLNQGRPHLSPRPPPTGDPGSQPQWGSGVPRAGKQGQHAVSAYLADARRALGSAGCSQLLAALTAYKQDDDLDKVLAVLAALTTAKPEDFPLLHRFSMFVRPHHKQRFSQTCTDLTGRPYPGMEPPGPQEERLAVPPVLTHRAPQPGPSRSEKTGKTQSKISSFLRQRPAGTVGAGGEDAGPSQSSGPPHGPAASEWGL",binds

# Results are given in words; binding and its absence hold for the method and conditions named. In cells and extracts the contact can be indirect. Here binding means that the protein was enriched with, or labelled near, the bait; the list need not be complete.
